No constants are given. Whether binding was seen depends on the method and setting. In cells and extracts the contact can be indirect. These calls come from enrichment with a bait or labelling near it, and not all partners need be listed. Where a sequence is shown, tags or fusion partners need not be part of it.
Molecular target: T1, Flag-tagged NUPR1 fusion protein (Nuclear Protein 1) (UniProt O60356)
T1 sequence: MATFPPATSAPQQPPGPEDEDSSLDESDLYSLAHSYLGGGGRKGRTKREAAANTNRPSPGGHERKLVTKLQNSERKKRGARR
Test: affinity purification with mass spectrometry; lysate of MiaPaCa-2 cells expressing Flag-NUPR1 (or Flag-GFP), HEPES-based lysis buffer with 10 mM NEM; anti-Flag M2 beads 2 h at 4°C, Flag peptide elution, trypsin digestion, LC-MS/MS

Chains of the proteins cited; added tags and fusions are not shown. Residues count along the entry.
UniProt O00505: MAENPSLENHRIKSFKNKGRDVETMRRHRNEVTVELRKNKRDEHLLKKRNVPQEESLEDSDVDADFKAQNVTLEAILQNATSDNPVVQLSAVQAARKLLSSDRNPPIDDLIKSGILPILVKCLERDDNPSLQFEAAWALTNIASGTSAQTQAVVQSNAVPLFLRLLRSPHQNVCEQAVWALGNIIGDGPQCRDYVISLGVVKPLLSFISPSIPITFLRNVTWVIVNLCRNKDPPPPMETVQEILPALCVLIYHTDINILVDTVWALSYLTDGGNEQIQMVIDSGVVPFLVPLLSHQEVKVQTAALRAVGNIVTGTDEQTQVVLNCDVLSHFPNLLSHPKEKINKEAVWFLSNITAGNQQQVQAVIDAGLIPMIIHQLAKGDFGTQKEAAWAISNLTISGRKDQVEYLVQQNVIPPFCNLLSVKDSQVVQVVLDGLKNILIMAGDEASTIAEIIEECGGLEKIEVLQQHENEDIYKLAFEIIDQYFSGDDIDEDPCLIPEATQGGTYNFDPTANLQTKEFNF
UniProt P52294: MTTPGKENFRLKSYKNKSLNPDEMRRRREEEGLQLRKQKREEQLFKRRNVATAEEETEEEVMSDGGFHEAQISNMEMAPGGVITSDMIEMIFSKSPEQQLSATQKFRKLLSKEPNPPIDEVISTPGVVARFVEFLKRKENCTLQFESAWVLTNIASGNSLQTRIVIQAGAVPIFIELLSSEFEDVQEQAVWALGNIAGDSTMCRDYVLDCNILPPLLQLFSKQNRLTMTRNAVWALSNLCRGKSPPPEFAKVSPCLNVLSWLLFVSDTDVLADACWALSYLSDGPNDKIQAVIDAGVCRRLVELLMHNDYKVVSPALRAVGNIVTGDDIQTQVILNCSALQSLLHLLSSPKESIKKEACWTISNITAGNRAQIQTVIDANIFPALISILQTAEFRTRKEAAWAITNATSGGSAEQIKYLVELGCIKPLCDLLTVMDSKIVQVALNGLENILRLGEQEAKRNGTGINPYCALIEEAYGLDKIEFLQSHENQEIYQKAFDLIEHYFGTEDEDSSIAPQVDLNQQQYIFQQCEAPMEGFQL
UniProt O00629: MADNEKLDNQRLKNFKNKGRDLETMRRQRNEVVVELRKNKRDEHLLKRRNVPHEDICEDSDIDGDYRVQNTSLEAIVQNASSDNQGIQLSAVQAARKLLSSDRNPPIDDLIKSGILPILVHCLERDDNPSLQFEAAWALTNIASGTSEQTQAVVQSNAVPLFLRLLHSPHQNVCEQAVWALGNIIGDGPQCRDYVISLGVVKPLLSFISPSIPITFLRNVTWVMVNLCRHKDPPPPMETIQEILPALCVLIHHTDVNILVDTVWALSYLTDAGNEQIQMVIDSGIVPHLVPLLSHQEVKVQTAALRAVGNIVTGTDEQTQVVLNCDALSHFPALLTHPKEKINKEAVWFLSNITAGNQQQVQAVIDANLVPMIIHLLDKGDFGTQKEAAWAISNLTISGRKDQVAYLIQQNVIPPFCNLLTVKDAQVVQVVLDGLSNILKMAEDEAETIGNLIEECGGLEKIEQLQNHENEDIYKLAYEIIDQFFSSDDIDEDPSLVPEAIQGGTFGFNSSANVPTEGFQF
UniProt P49792: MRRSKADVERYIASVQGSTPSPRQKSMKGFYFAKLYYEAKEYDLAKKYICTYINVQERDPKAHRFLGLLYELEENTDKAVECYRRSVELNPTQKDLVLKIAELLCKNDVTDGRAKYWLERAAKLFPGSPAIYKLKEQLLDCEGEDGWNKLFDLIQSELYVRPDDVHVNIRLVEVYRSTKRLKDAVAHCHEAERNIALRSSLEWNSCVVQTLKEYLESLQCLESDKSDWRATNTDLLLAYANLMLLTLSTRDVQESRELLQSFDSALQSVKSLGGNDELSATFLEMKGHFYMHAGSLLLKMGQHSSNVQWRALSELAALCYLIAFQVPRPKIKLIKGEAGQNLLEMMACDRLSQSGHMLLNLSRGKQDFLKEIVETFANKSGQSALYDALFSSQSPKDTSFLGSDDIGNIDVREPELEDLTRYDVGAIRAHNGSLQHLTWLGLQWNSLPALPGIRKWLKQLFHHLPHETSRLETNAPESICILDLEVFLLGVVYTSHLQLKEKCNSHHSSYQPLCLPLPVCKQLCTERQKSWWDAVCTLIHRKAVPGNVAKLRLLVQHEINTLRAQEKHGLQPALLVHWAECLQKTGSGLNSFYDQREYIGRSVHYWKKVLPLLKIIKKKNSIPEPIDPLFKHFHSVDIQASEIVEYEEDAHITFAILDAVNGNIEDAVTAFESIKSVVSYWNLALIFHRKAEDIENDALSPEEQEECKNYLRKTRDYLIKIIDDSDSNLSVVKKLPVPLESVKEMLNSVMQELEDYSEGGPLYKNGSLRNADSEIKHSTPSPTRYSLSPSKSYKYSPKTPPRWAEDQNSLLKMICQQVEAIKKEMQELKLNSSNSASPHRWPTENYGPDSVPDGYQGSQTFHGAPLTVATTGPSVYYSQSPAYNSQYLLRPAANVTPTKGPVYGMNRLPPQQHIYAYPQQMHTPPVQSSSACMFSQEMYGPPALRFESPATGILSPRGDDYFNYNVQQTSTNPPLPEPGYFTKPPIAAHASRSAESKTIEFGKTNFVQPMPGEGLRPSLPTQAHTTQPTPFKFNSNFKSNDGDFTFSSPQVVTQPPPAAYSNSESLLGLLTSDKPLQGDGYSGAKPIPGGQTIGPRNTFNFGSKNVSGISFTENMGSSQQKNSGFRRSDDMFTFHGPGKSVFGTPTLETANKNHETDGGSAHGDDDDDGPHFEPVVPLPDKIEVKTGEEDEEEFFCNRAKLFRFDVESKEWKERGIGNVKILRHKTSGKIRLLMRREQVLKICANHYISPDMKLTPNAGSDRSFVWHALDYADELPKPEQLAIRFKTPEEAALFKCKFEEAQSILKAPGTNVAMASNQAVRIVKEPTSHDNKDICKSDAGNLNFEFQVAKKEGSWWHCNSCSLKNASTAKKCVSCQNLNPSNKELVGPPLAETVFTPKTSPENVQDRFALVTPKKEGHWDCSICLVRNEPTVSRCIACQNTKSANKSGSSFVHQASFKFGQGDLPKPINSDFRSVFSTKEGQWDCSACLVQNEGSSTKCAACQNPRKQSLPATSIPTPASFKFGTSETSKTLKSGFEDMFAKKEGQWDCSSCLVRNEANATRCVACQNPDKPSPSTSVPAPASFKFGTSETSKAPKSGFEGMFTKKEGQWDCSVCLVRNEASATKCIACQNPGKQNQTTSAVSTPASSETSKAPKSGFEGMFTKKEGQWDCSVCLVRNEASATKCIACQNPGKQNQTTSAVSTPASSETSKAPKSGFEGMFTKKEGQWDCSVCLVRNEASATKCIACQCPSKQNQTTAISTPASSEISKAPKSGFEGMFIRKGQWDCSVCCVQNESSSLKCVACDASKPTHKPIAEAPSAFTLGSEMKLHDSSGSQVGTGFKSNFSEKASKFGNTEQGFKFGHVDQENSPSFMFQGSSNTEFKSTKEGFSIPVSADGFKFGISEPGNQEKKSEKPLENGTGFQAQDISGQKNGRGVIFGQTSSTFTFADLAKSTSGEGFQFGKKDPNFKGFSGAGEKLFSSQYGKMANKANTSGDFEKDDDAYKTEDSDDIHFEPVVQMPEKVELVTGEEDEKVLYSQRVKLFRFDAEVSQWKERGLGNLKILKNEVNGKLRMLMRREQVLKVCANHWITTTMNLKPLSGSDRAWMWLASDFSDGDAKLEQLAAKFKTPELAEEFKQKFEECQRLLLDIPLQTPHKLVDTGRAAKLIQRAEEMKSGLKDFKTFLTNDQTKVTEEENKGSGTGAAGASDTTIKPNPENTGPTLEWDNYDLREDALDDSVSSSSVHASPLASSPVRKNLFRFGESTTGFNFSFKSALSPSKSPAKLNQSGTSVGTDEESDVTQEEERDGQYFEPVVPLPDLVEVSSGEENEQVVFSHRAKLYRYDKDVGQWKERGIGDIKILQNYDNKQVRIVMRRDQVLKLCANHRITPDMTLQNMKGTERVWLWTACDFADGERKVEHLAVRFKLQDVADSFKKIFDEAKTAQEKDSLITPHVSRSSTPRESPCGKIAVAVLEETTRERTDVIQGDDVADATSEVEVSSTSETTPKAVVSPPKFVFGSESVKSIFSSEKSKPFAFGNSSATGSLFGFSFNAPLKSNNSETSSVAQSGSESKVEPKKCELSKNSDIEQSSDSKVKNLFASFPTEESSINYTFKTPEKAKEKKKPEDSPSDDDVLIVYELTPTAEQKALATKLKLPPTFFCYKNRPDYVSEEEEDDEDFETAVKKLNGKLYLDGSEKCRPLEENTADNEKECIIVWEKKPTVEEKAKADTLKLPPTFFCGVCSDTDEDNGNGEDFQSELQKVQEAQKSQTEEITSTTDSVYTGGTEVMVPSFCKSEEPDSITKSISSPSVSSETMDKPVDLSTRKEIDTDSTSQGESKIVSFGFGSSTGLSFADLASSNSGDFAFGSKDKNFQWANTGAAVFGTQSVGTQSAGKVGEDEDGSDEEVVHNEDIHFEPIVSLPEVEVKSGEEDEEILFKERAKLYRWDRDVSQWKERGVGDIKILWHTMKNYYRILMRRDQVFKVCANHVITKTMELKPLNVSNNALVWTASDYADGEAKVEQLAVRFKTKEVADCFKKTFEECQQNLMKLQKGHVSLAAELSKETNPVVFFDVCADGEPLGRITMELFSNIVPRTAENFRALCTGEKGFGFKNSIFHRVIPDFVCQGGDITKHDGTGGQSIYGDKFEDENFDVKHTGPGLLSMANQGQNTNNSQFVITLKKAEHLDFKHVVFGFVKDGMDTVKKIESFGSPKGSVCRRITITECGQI
UniProt P63279: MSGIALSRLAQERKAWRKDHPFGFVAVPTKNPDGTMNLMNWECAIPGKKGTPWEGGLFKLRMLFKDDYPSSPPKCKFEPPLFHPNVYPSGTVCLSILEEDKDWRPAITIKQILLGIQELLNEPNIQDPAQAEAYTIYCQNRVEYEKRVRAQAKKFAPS
UniProt P63165, residues 1-97: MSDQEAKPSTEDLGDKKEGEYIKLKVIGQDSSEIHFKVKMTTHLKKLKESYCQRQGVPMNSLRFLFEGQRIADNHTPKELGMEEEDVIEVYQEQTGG

| Substance | binding |
| --- | --- |
| KPNA3 (from UniProt O00505 1-521) | binds |
| KPNA6 (from UniProt O60684 1-536) | binds |
| KPNA1 (from UniProt P52294 1-538) | binds |

Results, then the substance that gave them:

| binding | Substance |
| --- | --- |
| binds | KPNA4 (endogenous) (from UniProt O00629 1-521) |
| binds | RANBP2 (a major SUMO E3 ligase) (from UniProt P49792 1-3224) (enzyme) |
| binds | UBC9 (the main SUMO conjugating enzyme) (from UniProt P63279 1-158) |
| binds | SUMO1 (from UniProt P63165 1-97) |
